{"source": "patent US12648951B2", "about": "“Methods of treating castration-resistant prostate cancer with glucocorticoid receptor antagonists, androgen deprivation therapy and anti-androgen receptor therapy” (University of Chicago, priority 2012, dated 2026)", "origin": "cited, not measured here", "key": {"[1]": {"tested_on": "LNCaP cells engineered to express elevated levels of AR", "details": "cited from earlier work"}, "[2]": {"tested_on": "VCaP cells which over express androgen receptors", "details": "cited from earlier work"}}, "note": "At least one structure is not confirmed: it was looked up by name or label, or the drawing left a doubt.", "data": [{"smiles": "CC(O)(CS(=O)(=O)c1ccc(F)cc1)C(=O)Nc1ccc(C#N)c(C(F)(F)F)c1", "note": "(centres unmarked) [bicalutamide]", "values": [{"measurement": "expression of androgen dependent genes PSA and TMPRSS2", "setting": "[1]", "result": "upregulated"}, {"measurement": "apoptosis", "setting": "[2]", "result": "did not"}]}]}
